Taken from: PubChem BioAssay AID1224827 (NIAID, 2016)
The whole screen tested about 3,800 reagents; below is a part drawn at random. In the full data, about 2,200 (57%) got an active call. 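Active means a strong reporter change in either direction; calls are per siRNA, not per gene; qiagen siRNAs gave weaker effects.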 The numbers tell different reagents against one gene apart.

Screen: 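Confirm genes whose knock-down changes LPS-driven TNF promoter activity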 (follow-up of hits)
System: RAW264.7 G9 mouse macrophage reporter clone
Reagents: single siRNA against mouse genes, 100 nM siRNA
Duration: siRNA for 2 days, then LPS about 16 h
Challenge: bacterial lipopolysaccharide (LPS), 10 ng/ml, cells fixed after overnight (about 16 h) stimulation
Detection: 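Imaged nuclear TNF reporter intensity, background removed, scaled per plate and to non-targeting control wells, as z-scores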
Reading the numbers: TNF reporter z-score, mean and TNF reporter z-score: higher = stronger Tnf promoter reporter signal; gene median z, three same-vendor siRNAs: higher = stronger Tnf reporter signal for the gene
Rule for the call: 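Active siRNA: replicate-mean z-score of 2 or more, or -2 or less; no calls for control wells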

no.	Gene	reagent	TNF reporter z-score, mean	gene median z, three same-vendor siRNAs	TNF reporter z-score, repeat 1	TNF reporter z-score, repeat 2	Call
1	Vmn1r6 (vomeronasal 1 receptor 6)	1	-0.828	-1.45	-0.24	-1.42	inactive
2	Vmn1r6 (vomeronasal 1 receptor 6)	2	-0.714	-1.45	-1.48	0.0461	inactive
3	Vmn1r6 (vomeronasal 1 receptor 6)	3	-5.07	-1.45	-4.97	-5.17	active
4	Mthfsd (methenyltetrahydrofolate synthetase domain containing)	1	1.91	-2.35	0.227	3.59	inactive
5	Mthfsd (methenyltetrahydrofolate synthetase domain containing)	2	-2.35	-2.35	-2.17	-2.53	active
6	Mthfsd (methenyltetrahydrofolate synthetase domain containing)	3	-3.96	-2.35	-3.86	-4.06	active
7	Mthfsd (methenyltetrahydrofolate synthetase domain containing)	4	-0.532	-1.06	-0.23	-0.834	inactive
8	Mthfsd (methenyltetrahydrofolate synthetase domain containing)	5	-1.06	-1.06	-0.987	-1.14	inactive
9	Mthfsd (methenyltetrahydrofolate synthetase domain containing)	6	-1.3	-1.06	-1.21	-1.39	inactive
10	Psme3	1	-1.22	-1.98	-1.55	-0.888	inactive
11	Psme3	2	-1.98	-1.98	-1.85	-2.11	inactive
12	Psme3	3	-3.71	-1.98	-4.08	-3.33	active
13	Psme3	4	3.05	1.18	4.64	1.47	active
14	Psme3	5	0.58	1.18	1.1	0.0656	inactive
15	Psme3	6	-0.0102	1.18	1.27	-1.29	inactive
16	Zfp418 (zinc finger protein 418)	1	-1.19	-2.07	-0.699	-1.69	inactive
17	Zfp418 (zinc finger protein 418)	2	-2.01	-2.07	-1.12	-2.9	active
18	Zfp418 (zinc finger protein 418)	3	-2.63	-2.07	-2.79	-2.46	active
19	Zfp418 (zinc finger protein 418)	4	4.14	1.42	7.09	1.18	active
20	Zfp418 (zinc finger protein 418)	5	1.34	1.42	1.65	1.03	inactive
21	Zfp418 (zinc finger protein 418)	6	2.82	1.42	5.93	-0.295	active
22	Tpp1 (tripeptidyl peptidase I)	1	-0.67	-1.66	-1.56	0.217	inactive
23	Tpp1 (tripeptidyl peptidase I)	2	-1.57	-1.66	-1.39	-1.76	inactive
24	Tpp1 (tripeptidyl peptidase I)	3	-4.85	-1.66	-4.43	-5.28	active
25	Slc51a	1	0.741	-2.6	-0.657	2.14	inactive
26	Slc51a	2	-2.6	-2.6	-2.66	-2.55	active
27	Slc51a	3	-2.82	-2.6	-2.96	-2.68	active
28	Slc51a	4	3.81	0.573	6.97	0.641	active
29	Slc51a	5	3.48	0.573	7.38	-0.424	active
30	Slc51a	6	-0.00828	0.573	0.505	-0.521	inactive
31	Dusp13b (dual specificity phosphatase 13B)	1	1.06	-3.56	0.517	1.61	inactive
32	Dusp13b (dual specificity phosphatase 13B)	2	-3.97	-3.56	-4.33	-3.62	active
33	Dusp13b (dual specificity phosphatase 13B)	3	-4.19	-3.56	-4.88	-3.51	active
34	Dusp13b (dual specificity phosphatase 13B)	4	3.43	-1.69	6.62	0.242	active
35	Dusp13b (dual specificity phosphatase 13B)	5	-2.04	-1.69	-1.94	-2.14	active
36	Dusp13b (dual specificity phosphatase 13B)	6	-2.18	-1.69	-1.45	-2.91	active
37	Mrpl33 (mitochondrial ribosomal protein L33)	1	1.23	-4.63	-0.127	2.59	inactive
38	Mrpl33 (mitochondrial ribosomal protein L33)	2	-4.63	-4.63	-4.57	-4.68	active
39	Mrpl33 (mitochondrial ribosomal protein L33)	3	-5.43	-4.63	-5.57	-5.28	active
40	Mrpl33 (mitochondrial ribosomal protein L33)	4	1.34	-0.685	2.83	-0.148	inactive
41	Mrpl33 (mitochondrial ribosomal protein L33)	5	-0.685	-0.685	-0.623	-0.747	inactive
42	Mrpl33 (mitochondrial ribosomal protein L33)	6	-1.97	-0.685	-2.34	-1.59	inactive
43	Cat (catalase)	1	-0.00975	-1.49	1.28	-1.3	inactive
44	Cat (catalase)	2	-1.8	-1.49	-1.92	-1.68	inactive
45	Cat (catalase)	3	-2.16	-1.49	-3.04	-1.27	active
46	Cat (catalase)	4	-0.123	-1.16	-0.377	0.131	inactive
47	Cat (catalase)	5	-0.119	-1.16	2.2	-2.44	inactive
48	Cat (catalase)	6	-1.95	-1.16	-1.96	-1.93	inactive
49	Irx3 (Iroquois related homeobox 3)	1	0.102	-2	0.156	0.0472	inactive
50	Irx3 (Iroquois related homeobox 3)	2	-2.15	-2	-2.46	-1.84	active
51	Irx3 (Iroquois related homeobox 3)	3	-3.28	-2	-4.39	-2.17	active
52	Irx3 (Iroquois related homeobox 3)	4	3.77	0.232	6.38	1.15	active
53	Irx3 (Iroquois related homeobox 3)	5	0.232	0.232	-0.283	0.748	inactive
54	Irx3 (Iroquois related homeobox 3)	6	-1.54	0.232	-1.66	-1.43	inactive
55	Chaf1a (chromatin assembly factor 1, subunit A)	1	-0.9	-1.97	-2.49	0.689	inactive
56	Chaf1a (chromatin assembly factor 1, subunit A)	2	-1.97	-1.97	-2.23	-1.72	inactive
57	Chaf1a (chromatin assembly factor 1, subunit A)	3	-2.23	-1.97	-3.23	-1.22	active
58	Chaf1a (chromatin assembly factor 1, subunit A)	4	2.74	-0.238	5.47	0.00732	active
59	Chaf1a (chromatin assembly factor 1, subunit A)	5	1.42	-0.238	3.33	-0.483	inactive
60	Chaf1a (chromatin assembly factor 1, subunit A)	6	-1.93	-0.238	-1.8	-2.07	inactive
61	Ndor1 (NADPH dependent diflavin oxidoreductase 1)	1	-1.42	-4.08	-1.84	-1	inactive
62	Ndor1 (NADPH dependent diflavin oxidoreductase 1)	2	-4.26	-4.08	-4.03	-4.48	active
63	Ndor1 (NADPH dependent diflavin oxidoreductase 1)	3	-4.25	-4.08	-4.36	-4.14	active
64	Ndor1 (NADPH dependent diflavin oxidoreductase 1)	4	6.52	1.49	11.7	1.32	active
65	Ndor1 (NADPH dependent diflavin oxidoreductase 1)	5	3.38	1.49	6.68	0.0826	active
66	Ndor1 (NADPH dependent diflavin oxidoreductase 1)	6	1.32	1.49	1.65	0.994	inactive
67	Arrdc4 (arrestin domain containing 4)	1	3.52	-2.92	3.49	3.55	active
68	Arrdc4 (arrestin domain containing 4)	2	-2.92	-2.92	-3.07	-2.76	active
69	Arrdc4 (arrestin domain containing 4)	3	-4.01	-2.92	-4.01	-4.01	active
70	Arrdc4 (arrestin domain containing 4)	4	1.18	-0.384	1.85	0.518	inactive
71	Arrdc4 (arrestin domain containing 4)	5	-0.77	-0.384	-0.565	-0.975	inactive
72	Arrdc4 (arrestin domain containing 4)	6	-1.02	-0.384	-0.203	-1.83	inactive
73	Ppp1r3c (protein phosphatase 1, regulatory subunit 3C)	1	4.88	-1.64	3.95	5.82	active
74	Ppp1r3c (protein phosphatase 1, regulatory subunit 3C)	2	-1.64	-1.64	-1.93	-1.36	inactive
75	Ppp1r3c (protein phosphatase 1, regulatory subunit 3C)	3	-3.6	-1.64	-3.57	-3.62	active
76	Ppp1r3c (protein phosphatase 1, regulatory subunit 3C)	4	3.89	1.36	6.4	1.38	active
77	Ppp1r3c (protein phosphatase 1, regulatory subunit 3C)	5	1.46	1.36	2.63	0.297	inactive
78	Ppp1r3c (protein phosphatase 1, regulatory subunit 3C)	6	0.253	1.36	1.35	-0.84	inactive

Copied from the entries so far for reference:
no.	Gene	reagent	TNF reporter z-score, mean	gene median z, three same-vendor siRNAs	TNF reporter z-score, repeat 1	TNF reporter z-score, repeat 2	Call
24	Tpp1 (tripeptidyl peptidase I)	3	-4.85	-1.66	-4.43	-5.28	active
25	Slc51a	1	0.741	-2.6	-0.657	2.14	inactive
26	Slc51a	2	-2.6	-2.6	-2.66	-2.55	active
27	Slc51a	3	-2.82	-2.6	-2.96	-2.68	active
28	Slc51a	4	3.81	0.573	6.97	0.641	active
29	Slc51a	5	3.48	0.573	7.38	-0.424	active
30	Slc51a	6	-0.00828	0.573	0.505	-0.521	inactive
